Source: article PMC12040169 (PLOS Biology, 2025)
This is one part of the list.

Tested on: T1, CTL2-GFP (C. trachomatis L2/434/Bu, GFP-expressing)
T1 construct: L2/434/Bu, GFP-expressing
Set-up: species or system HeLa; Intracellular C. trachomatis growth in HeLa cells, bulk GFP fluorescence relative to DMSO
Conditions: bulk GFP, single well; 28.5 h, 10 µM; inhibitor

| SMILES | % of control remaining |
| --- | --- |
| CC(=O)Nc1ccc(S(=O)(=O)/N=C(\Nc2nc(C)cc(C)n2)Nc2ccccc2F)cc1 [CBK266134] | 115.307% |
| CC(C)Nc1nccnc1SCCN(C)C [CBK105290] | 141.723% |
| Cn1ncc(N2CCN(C(=O)CCCOc3ccccc3)CC2)cc1=O [CBK306937] | 125.593% |
| Cc1nc2c(c(=O)[nH]1)CCN(Cc1[nH]c3ccccc3c1C)C2 [CBK283995] | 117.573% |
| Cc1cc(NC(=O)NC2CCSc3ccccc32)no1 (stereo not shown) [CBK259296] | 100.183% |
| Oc1ccc(-n2ncc(-c3ccc(F)cc3F)n2)cc1 [CBK112736] | 115.875% |
| CC(C)(C)c1ccc(N(C2CCNCC2)S(=O)(=O)c2cccc(C(F)(F)F)c2)cc1 [CBK165056T] | 33.0553% |
| O=C(CSc1nnc(COc2ccc(Br)cc2)o1)OC1CCCCC1 [CBK027482] | 150.06% |
| Cc1ccc(S(=O)(=O)NCCc2cn3ccc(C)cc3n2)cc1 [CBK287630] | 133.222% |
| C[C@H]1CN2C[C@H](O)CC2CN1Cc1cccn1Cc1ccccc1F (stereo partly shown) [CBK285165] | 108.802% |
| O=C(Nc1nccs1)c1c(O)n(Cc2ccccc2)c2ccccc2c1=O [CBK291173] | 136.21% |
| Cc1ccc(-c2ccc(CCC(=O)O)n2NC(N)=S)cc1 [CBK265870] | 230.119% |
| O=S(=O)(Oc1ccc(-c2cnc3ccccc3n2)cc1)c1ccccc1 [CBK261104] | 100% |
| CCCc1ccc(S(=O)(=O)NCC(=O)OCC)cc1 [CBK034429] | 70.8344% |
| Cc1cc(C[C@@H]2CCC[C@H]2NCc2ccncc2)on1 [CBK284934] | 93.3217% |
| Fc1ccc(CN2CCC3(C2)c2[nH]c4ccccc4c2CCN3Cc2ccc(F)cc2)cc1 (stereo not shown) [CBK059467] | 164.373% |
| CCc1cc(CNC(=O)C2CN(Cc3ccc(Cl)cc3)C2)on1 [CBK281564] | 100.954% |
| CC[C@H]1C[N@@]2CC[C@H]1C[C@@H]2CNC(=O)Nc1cccc(C#N)c1 [CBK288748] | 131.739% |
| CCOC(=O)c1c(NC(=O)CN2CCCCC2)sc2c1CCCC2O (stereo not shown) [CBK261644] | 121.745% |
| C/C(C(=O)O)=C(/C)C(=O)N1CCC2(CC1)NCCc1c2[nH]c2ccc(C)cc12 [CBK047026] | 95.0244% |
| O=C1CC2(CCN(C(=O)c3ccccc3F)CC2)Oc2c(Cl)cc(Cl)cc21 [CBK156453] | 103.894% |
| O=C(CSc1ccccc1)Nc1cccc(NC(=O)c2cccs2)c1 [CBK266788] | 129.111% |
| O=C(CN1CCC(NC(=O)c2cccs2)CC1)NCc1ccccc1F [CBK304901] | 133.72% |
| COc1cc(CNc2cncc(-c3ccc(F)cc3F)n2)cc(OC)c1OC [CBK065826] | 103.297% |
| COCC(=O)N1CCN(C(=O)c2cccs2)[C@@H](C(=O)OC)C1 [CBK289614] | 102.238% |
| C[C@H](NC(=O)C1CCN(C(=O)OC(C)(C)C)CC1)C(=O)O [CBK286730] | 145.594% |
| CCN(Cc1ccccc1)C(=O)Nc1ccc2c(c1)OCCO2 [CBK155231] | 100% |

| SMILES | % of control remaining |
| --- | --- |
| O=C(CN1C(=O)c2ccccc2S1(=O)=O)Nc1ccccc1C(=O)N1CCOCC1 [CBK266975] | 147.747% |
| O=C(CCc1ccccc1)NNC(=O)C1C2C=CC(C2)C1C(=O)O (stereo not shown) [CBK267541] | 132.042% |
| N=C(N)NCc1ccc(Cl)cc1 [CBK002260] | 157.672% |
| CCOc1ccc(-c2ccnc(N3CCN(CC)CC3)n2)cc1C(=O)O [CBK307697] | 128.92% |
| O=C1NC2CS(=O)(=O)CC2N1Cc1ccccc1 (stereo not shown) [CBK009306] | 101.161% |
| Nc1ccc(Oc2ccc3nc4c5cc(I)ccc5c5ccc(I)cc5c4nc3c2)cc1 [CBK261978] | 90.7208% |
| Nc1ncnc2c1nc(SCc1ccccc1)n2Cc1ccccc1 [CBK288181] | 106.448% |
| Nc1nnc(Sc2nccnc2N2CCCC2)s1 [CBK093804] | 130.538% |
| NC(=O)[C@@H]1C[C@@H](O)[C@H](O)[C@H]2[C@@H]1N(c1ccc(Cl)cc1)C(=S)N2CC1CCCCC1 [CBK288933] | 120.393% |
| Cc1cc(COC(=O)Nc2ccc(Cl)cc2)no1 [CBK086560] | 104.467% |
| Cc1ccc2nc(-c3ccc(NC(=O)CSc4nnc(C)s4)cc3)sc2c1 [CBK266185] | 221.961% |
| c1ccc(OCCN2CCCN(c3nccc(OCC4COc5ccccc5O4)n3)CC2)cc1 (stereo not shown) [CBK083980] | 120.184% |
| O=S(=O)(CC(CN1CCCCC1)N1CCCCC1)c1ccc2ccccc2c1 (stereo not shown) [CBK267087] | 123.711% |
| COC(=O)c1cc(NC(=O)OC(C)(C)C)ccc1O [CBK016529] | 154.177% |
| CC(C)(CC(=O)O)CC(=O)Nc1ccc(N2CCCC2=O)cc1 [CBK299787] | 94.6878% |
| FC(F)(F)c1ccnc(OCc2cccnc2)c1 [CBK115784] | 64.7603% |
| CCOC(=O)CC1C(=O)NCCN1Cc1ccoc1 (stereo not shown) [CBK270066] | 145.695% |
| CC(=O)Nc1ccc(S(=O)(=O)N2CCN(c3ccc([N+](=O)[O-])cc3C(F)(F)F)CC2)cc1 [CBK264944] | 83.3361% |
| Cc1nc2ccc(NC(=O)CCn3nc(C)c(Cl)c3C)cc2s1 [CBK281634] | 94.8033% |
| O=C(O)C1(c2ccc(Br)cc2)CCCC1 [CBK287134] | 118.065% |
| CCN1C(=O)COC[C@@H]1[C@H](O)c1ccc(NC(=O)COc2ccccc2)cc1 [CBK289685] | 134.889% |
| COc1ccc(N2CCN(c3cncc(-c4cccc(N)c4)n3)CC2)cc1OC [CBK066126] | 176.36% |
| CN(C)CCSc1nc2cc(Cl)ccc2o1 [CBK266337C] | 108.403% |
| COc1ccccc1CNC(=O)c1cnc2sc(C)cn2c1=O [CBK287708] | 119.609% |
| COc1cc(/C=N/N=C(/Nc2ccc(C)cc2)c2nc3ccccc3s2)ccc1O [CBK265029] | 128.635% |
| COc1cc(C(c2nnnn2C2CCCCC2)N2CCN(C)CC2)cc(OC)c1OC (stereo not shown) [CBK142338C] | 122.213% |
| CC(=O)N1CCN(c2ccc(NC(=O)CSc3ccc(C)cc3)cc2)CC1 [CBK269854] | 113.649% |

No new results follow: an excerpt of the list.

| SMILES | % of control remaining |
| --- | --- |
| c1ccc(OCCN2CCCN(c3nccc(OCC4COc5ccccc5O4)n3)CC2)cc1 (stereo not shown) [CBK083980] | 120.184% |
| O=S(=O)(CC(CN1CCCCC1)N1CCCCC1)c1ccc2ccccc2c1 (stereo not shown) [CBK267087] | 123.711% |
| COC(=O)c1cc(NC(=O)OC(C)(C)C)ccc1O [CBK016529] | 154.177% |

Later entries

| SMILES | % of control remaining |
| --- | --- |
| O=C(Cn1c(C2CCCNC2)cc2cccnc21)N1CCCC1 (stereo not shown) [CBK285060] | 139.249% |
| O=C(CCc1ccncc1)N1CCOC(c2ccc(F)cc2F)C1 (stereo not shown) [CBK304692] | 107.689% |
| CC(C)(C)C(=O)N1CCC(c2nnc(-c3ccsc3)o2)CC1 [CBK283378] | 115.261% |
| COC(=O)c1cccc(COC(=O)c2ccc3nc(C)c(C)nc3c2)c1 [CBK269641] | 104.03% |
| Cc1cn(C(C)C(=O)N(C)C)nc1C1CCCCC1 (stereo not shown) [CBK016092] | 110.37% |
| Cc1nc2ccc(C(=O)N(C)CCN(C)C)cn2c1N(C)CC1CCCCC1 [CBK145894] | 139.839% |
| Cc1ccc(S(=O)(=O)N2CCN(CC(O)COc3ccc4ccccc4c3)CC2)cc1 (stereo not shown) [CBK266239] | 120.623% |
| Cc1nnc(N/N=C/c2cn(Cc3c(F)cccc3Cl)c3ccccc23)n1N [CBK278277C] | 107.527% |
| CC(C)c1ccc(N2C(=O)[C@@H]3C[C@@H](NC(=O)c4cccn4C)CCN3C2=O)cc1 [CBK289547] | 108.124% |
| Cn1ccnc1CN1CCNC(=O)C1c1ccccc1C(F)(F)F (stereo not shown) [CBK306415] | 98.4775% |
| O=C(c1n[nH]nc1-c1ccccc1)N1CCCC(C(F)(F)F)C1 (stereo not shown) [CBK164228] | 139.502% |
| CCCNc1cncc(-c2cccc(F)c2)n1 [CBK065441] | 99.7552% |
| CCCNCCc1ccc2c(c1)C(=O)N(Cc1ccc(OC)cc1)C2=O [CBK011826C] | 122.632% |
| O=c1oc(-c2cccc(F)c2)nc2cc(Cc3ccc4c(=O)oc(-c5cccc(F)c5)nc4c3)ccc12 [CBK262775] | 91.2436% |
| CCOC(=O)c1cnc(C2CC2)nc1NCc1cccc(C)c1C [CBK114707] | 110.305% |
| COc1cccc(NC(=O)c2cc3ccccc3o/c2=N\O)c1 [CBK288387] | 195.818% |
| Cc1cccnc1C(NC(=O)C1CCN(S(=O)(=O)c2cccs2)CC1)c1cccs1 (stereo not shown) [CBK060147] | 96.9912% |
| CC(C)NC(=O)C1CC2CCC1(C)CC21NC(=O)c2ccccc2O1 (stereo not shown) [CBK285261] | 120.13% |
| Cc1ccc(SC(C)C(=O)Nc2cc(Cl)ccc2O)cc1 (stereo not shown) [CBK268610] | 115.321% |
| O=C(c1ccccn1)C1CCCN(c2nccc(CCC(F)(F)F)n2)C1 (stereo not shown) [CBK306775] | 34.0231% |
| COCCOCN1C(=O)CC2(C1=O)C(=O)N(CC(=O)O)c1ccc(F)cc12 (stereo not shown) [CBK076163] | 144.457% |
| NS(=O)(=O)c1ccc(CCNC(=O)c2ccccc2Oc2ccccc2)cc1 [CBK264394] | 100% |
| COC(=O)c1cc(C(=O)Nc2ccc(OCCC(N)=O)cc2)c[nH]1 [CBK305486] | 112.33% |
| Cc1ccc(C(=O)NCc2cccnc2)c(N2CCN(C(=O)c3ccco3)CC2)n1 [CBK076444] | 126.411% |
| CC1=CC(c2ccccc2)N2N=C(NC(=O)CCCC(=O)O)NC2=N1 (stereo not shown) [CBK287037] | 128.98% |
